Test results: paper PMC8113471
No constants are given. Whether binding was seen depends on the method and setting.

By UniProt entry, the sequences of proteins in these tests, tags left out. Residues count along the entry.
GST-Tanc2-N (aa 1-1358) (Q9HCD6, residues 1-1358): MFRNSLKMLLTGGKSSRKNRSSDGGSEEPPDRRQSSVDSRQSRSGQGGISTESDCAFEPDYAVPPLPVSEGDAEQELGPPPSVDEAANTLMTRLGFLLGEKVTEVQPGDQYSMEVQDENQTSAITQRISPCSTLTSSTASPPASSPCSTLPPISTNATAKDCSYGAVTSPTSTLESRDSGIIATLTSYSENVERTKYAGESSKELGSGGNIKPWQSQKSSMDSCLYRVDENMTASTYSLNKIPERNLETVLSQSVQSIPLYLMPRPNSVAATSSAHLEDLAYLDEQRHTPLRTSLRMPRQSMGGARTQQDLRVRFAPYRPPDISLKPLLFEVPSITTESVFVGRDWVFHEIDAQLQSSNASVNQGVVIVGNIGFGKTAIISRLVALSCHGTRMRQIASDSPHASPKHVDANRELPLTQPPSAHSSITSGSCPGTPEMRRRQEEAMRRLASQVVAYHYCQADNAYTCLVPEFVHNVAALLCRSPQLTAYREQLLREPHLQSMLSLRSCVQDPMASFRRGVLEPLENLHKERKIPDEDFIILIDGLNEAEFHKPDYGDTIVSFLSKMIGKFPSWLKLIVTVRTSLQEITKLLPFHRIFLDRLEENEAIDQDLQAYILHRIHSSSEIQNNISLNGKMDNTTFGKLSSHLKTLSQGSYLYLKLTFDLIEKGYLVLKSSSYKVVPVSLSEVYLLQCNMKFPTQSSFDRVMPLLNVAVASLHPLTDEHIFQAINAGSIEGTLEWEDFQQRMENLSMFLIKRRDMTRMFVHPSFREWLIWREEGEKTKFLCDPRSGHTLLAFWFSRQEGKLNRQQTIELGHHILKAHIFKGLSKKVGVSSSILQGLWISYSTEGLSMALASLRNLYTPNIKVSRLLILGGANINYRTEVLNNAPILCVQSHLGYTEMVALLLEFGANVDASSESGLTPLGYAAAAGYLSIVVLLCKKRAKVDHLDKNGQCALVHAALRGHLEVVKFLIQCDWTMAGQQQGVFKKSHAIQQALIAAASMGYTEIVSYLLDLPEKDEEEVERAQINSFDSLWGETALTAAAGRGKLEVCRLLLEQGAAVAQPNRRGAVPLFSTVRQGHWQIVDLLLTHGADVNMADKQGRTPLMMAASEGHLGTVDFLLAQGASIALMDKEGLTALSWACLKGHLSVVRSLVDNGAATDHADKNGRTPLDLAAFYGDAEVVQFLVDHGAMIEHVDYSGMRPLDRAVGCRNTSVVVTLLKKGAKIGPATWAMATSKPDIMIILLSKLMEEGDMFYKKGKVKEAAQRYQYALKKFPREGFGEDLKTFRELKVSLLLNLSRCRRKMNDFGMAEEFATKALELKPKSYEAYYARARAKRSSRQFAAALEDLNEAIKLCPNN
GST-Tanc2-C (aa 1359-1990) (Q9HCD6, residues 1359-1990): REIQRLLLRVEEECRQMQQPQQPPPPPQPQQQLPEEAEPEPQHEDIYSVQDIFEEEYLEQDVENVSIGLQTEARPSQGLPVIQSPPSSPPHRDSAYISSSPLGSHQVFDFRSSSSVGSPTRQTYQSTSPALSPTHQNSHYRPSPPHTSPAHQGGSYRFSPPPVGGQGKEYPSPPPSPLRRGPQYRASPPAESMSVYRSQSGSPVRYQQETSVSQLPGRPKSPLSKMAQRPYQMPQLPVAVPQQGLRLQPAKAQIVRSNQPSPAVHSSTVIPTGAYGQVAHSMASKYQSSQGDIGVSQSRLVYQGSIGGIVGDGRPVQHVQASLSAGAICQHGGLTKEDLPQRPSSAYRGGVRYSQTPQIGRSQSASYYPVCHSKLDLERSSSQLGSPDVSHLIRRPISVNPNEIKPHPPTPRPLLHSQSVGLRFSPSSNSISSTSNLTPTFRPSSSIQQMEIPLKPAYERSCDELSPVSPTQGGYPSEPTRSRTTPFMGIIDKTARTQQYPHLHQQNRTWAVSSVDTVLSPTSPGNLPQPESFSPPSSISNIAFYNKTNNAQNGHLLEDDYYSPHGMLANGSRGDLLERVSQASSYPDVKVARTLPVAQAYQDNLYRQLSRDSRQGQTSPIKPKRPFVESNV
UniProt Q8TB45: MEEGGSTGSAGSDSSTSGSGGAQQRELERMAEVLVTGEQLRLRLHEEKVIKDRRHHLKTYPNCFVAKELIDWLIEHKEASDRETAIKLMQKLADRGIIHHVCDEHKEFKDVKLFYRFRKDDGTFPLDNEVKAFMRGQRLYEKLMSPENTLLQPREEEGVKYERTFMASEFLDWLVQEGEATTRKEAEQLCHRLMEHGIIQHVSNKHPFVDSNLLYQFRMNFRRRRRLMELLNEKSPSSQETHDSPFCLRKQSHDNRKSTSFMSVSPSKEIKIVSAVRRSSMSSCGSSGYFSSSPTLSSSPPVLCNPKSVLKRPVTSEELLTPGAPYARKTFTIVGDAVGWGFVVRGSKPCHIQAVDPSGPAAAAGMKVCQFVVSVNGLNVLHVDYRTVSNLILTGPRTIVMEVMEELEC

Assays:
[1] = target: GST-Tanc2-N (aa 1-1358) (human) (UniProt Q9HCD6); assay: pull-down; GST-Tanc2 proteins (full-length, N, C) immobilised on glutathione agarose beads, incubated with mTOR recombinant protein (0.5 µg) or Deptor protein in RIPA buffer for 2 h at 4 °C; washed three times; Coomassie staining or immunoblot; both purified
[2] = target: GST-Tanc2-C (aa 1359-1990) (human) (UniProt Q9HCD6); assay: as above

Substance: purified Deptor protein (from UniProt Q8TB45 1-409)
- binding [1]: no binding
- binding [2]: no binding
